Results reported in US20220008397A1, “PHARMACEUTICAL COMPOSITION FOR THE TREATMENT OF OCULAR NEOVASCULARISATION” (NOVALIQ GMBH, priority 2019, published 2022).
At least one compound was matched to its structure with a doubt left.

Tested on: BMDMs (bone marrow derived macrophages)
Test: In vitro study using BMDMs (culture of bone marrow derived macrophages), expression of angiogenic growth factors
Format: cell-based

C[C@@H]1C[C@H]2[C@@H]3CCC4=CC(=O)C=C[C@]4(C)[C@@]3(F)[C@@H](O)C[C@]2(C)[C@@]1(O)C(=O)CO [Dexamethasone]
Expression of anti-angiogenic growth factors: can increase the expression of anti-angiogenic growth factors
